Test results reported in PMC10061497.
No constants are given. Whether binding was seen depends on the method and setting. Binding seen in cells or lysates may run through a third protein. Here binding means that the protein was enriched with, or labelled near, the bait; the list need not be complete. Sequences can lack the tags named with a protein.

Amino acid sequences for entries named in this document (tags omitted). A change or cut given only in a name is not applied to a line headed by its entry.
UniProt Q38C15: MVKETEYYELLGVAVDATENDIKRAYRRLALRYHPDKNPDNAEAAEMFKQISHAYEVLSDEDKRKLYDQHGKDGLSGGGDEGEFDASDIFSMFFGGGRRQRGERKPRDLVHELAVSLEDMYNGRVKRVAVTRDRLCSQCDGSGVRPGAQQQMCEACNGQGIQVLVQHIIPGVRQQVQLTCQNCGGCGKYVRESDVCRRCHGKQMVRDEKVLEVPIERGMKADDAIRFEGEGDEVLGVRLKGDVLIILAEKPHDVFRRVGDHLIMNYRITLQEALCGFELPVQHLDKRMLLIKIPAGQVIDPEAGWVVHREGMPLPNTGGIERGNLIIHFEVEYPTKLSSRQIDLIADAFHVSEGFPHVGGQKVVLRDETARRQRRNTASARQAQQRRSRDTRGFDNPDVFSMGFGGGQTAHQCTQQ
UniProt Q583J3: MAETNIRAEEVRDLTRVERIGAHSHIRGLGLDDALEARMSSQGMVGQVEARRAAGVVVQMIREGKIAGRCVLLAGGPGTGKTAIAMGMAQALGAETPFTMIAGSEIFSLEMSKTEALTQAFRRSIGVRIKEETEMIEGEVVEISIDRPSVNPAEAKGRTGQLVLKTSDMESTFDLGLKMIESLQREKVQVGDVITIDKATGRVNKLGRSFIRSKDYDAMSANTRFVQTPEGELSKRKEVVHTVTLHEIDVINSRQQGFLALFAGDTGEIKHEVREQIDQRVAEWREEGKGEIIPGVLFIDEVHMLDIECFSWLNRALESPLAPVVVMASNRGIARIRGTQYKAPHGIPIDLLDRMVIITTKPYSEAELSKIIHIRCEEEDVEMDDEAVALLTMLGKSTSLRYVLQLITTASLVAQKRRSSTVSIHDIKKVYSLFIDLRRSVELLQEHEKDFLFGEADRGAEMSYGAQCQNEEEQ
UniProt Q586I3: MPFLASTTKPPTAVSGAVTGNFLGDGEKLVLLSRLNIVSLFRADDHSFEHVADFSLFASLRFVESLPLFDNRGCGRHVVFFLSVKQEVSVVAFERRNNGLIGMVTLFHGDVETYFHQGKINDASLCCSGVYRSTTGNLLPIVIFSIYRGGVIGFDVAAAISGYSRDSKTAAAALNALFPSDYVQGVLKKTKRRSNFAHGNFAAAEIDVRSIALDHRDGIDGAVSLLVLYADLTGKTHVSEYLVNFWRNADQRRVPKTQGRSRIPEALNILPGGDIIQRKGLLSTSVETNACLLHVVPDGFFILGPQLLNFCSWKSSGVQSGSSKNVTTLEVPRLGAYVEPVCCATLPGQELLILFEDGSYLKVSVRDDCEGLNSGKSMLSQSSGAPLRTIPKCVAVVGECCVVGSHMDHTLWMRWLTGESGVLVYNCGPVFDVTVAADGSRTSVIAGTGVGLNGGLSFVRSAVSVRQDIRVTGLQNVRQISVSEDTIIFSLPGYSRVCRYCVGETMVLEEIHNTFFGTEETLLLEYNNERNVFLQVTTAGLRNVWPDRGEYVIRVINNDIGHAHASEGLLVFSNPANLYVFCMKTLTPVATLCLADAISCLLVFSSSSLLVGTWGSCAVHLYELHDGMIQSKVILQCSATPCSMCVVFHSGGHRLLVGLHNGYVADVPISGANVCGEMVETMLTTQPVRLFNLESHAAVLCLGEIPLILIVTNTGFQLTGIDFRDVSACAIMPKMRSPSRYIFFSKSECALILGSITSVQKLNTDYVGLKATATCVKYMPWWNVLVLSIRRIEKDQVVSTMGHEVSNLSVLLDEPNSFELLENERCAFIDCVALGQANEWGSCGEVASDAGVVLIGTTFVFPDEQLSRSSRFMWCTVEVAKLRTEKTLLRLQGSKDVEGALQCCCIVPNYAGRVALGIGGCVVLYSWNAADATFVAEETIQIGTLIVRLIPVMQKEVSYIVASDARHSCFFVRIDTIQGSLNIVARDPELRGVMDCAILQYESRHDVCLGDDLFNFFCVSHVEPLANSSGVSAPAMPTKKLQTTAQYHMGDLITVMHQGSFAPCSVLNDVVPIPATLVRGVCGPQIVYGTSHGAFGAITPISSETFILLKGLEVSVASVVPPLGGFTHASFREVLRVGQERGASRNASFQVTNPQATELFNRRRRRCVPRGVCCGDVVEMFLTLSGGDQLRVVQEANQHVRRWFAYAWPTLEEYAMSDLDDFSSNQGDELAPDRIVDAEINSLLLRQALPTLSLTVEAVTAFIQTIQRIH
UniProt Q584U1: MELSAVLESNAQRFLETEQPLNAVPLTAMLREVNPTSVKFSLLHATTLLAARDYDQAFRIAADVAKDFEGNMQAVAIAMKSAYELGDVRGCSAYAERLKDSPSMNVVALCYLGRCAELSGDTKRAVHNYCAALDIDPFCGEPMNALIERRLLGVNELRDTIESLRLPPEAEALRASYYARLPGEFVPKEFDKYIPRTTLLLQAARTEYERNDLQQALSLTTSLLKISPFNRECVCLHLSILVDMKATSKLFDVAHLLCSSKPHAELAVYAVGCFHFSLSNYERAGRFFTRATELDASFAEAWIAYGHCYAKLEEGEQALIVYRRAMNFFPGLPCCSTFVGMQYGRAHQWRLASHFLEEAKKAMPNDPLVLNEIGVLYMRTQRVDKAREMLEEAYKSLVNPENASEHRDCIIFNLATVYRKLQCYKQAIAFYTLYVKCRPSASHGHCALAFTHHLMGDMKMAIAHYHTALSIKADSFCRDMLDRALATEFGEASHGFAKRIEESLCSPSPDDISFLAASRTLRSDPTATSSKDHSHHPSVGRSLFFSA
UniProt Q38F23: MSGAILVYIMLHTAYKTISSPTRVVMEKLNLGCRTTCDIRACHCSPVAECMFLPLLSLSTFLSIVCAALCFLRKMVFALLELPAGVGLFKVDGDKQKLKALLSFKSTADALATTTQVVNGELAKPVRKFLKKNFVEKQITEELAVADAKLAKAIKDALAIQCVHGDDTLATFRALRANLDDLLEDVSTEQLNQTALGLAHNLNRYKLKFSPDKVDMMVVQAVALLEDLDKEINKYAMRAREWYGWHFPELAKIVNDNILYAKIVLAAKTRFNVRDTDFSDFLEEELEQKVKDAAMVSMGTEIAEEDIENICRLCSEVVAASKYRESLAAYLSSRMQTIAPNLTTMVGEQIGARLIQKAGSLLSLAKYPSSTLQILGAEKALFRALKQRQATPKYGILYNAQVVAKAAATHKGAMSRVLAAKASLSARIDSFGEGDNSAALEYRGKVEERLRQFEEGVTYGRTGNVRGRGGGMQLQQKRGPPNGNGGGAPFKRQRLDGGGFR
UniProt Q581V4: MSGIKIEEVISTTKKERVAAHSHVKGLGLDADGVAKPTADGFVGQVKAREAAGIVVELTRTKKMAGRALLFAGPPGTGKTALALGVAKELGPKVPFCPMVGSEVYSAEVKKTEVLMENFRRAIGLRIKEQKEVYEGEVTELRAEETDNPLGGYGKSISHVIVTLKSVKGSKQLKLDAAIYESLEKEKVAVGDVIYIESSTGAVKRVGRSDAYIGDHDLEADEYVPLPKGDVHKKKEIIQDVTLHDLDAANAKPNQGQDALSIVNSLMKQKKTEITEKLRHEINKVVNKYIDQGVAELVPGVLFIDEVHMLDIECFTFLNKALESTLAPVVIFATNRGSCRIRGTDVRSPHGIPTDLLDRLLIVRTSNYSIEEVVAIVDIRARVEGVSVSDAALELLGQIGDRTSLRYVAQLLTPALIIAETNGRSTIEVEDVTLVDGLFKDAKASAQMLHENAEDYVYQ
UniProt Q580Z5: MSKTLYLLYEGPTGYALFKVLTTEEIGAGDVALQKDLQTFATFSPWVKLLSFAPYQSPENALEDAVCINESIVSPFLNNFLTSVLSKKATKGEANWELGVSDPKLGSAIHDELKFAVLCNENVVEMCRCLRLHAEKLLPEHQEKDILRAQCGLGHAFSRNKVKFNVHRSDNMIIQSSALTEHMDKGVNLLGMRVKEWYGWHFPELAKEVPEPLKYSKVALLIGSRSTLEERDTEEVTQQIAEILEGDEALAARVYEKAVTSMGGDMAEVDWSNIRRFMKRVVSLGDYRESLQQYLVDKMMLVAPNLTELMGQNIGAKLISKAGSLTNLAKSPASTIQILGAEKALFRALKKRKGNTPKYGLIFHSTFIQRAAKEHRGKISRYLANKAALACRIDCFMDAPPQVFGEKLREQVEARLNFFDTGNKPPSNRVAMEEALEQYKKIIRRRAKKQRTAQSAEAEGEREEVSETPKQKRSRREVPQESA
UniProt Q38B27: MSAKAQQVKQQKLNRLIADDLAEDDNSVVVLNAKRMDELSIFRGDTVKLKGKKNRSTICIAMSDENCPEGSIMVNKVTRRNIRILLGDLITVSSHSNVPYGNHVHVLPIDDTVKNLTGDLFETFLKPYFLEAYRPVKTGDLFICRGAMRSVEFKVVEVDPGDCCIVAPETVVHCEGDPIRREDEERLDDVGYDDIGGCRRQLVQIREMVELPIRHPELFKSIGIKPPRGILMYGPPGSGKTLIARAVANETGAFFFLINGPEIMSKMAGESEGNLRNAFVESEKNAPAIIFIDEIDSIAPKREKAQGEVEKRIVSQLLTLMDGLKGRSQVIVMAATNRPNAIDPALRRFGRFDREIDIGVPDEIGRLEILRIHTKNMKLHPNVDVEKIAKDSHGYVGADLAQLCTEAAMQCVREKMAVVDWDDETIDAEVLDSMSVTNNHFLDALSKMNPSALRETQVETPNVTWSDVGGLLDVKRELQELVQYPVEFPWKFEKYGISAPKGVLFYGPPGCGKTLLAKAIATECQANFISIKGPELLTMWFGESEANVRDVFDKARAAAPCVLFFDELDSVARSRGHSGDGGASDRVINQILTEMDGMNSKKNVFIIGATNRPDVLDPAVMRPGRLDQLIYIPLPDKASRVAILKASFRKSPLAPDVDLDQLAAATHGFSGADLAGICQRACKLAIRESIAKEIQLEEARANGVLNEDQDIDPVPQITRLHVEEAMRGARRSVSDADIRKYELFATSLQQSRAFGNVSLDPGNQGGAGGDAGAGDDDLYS
UniProt Q382Z6: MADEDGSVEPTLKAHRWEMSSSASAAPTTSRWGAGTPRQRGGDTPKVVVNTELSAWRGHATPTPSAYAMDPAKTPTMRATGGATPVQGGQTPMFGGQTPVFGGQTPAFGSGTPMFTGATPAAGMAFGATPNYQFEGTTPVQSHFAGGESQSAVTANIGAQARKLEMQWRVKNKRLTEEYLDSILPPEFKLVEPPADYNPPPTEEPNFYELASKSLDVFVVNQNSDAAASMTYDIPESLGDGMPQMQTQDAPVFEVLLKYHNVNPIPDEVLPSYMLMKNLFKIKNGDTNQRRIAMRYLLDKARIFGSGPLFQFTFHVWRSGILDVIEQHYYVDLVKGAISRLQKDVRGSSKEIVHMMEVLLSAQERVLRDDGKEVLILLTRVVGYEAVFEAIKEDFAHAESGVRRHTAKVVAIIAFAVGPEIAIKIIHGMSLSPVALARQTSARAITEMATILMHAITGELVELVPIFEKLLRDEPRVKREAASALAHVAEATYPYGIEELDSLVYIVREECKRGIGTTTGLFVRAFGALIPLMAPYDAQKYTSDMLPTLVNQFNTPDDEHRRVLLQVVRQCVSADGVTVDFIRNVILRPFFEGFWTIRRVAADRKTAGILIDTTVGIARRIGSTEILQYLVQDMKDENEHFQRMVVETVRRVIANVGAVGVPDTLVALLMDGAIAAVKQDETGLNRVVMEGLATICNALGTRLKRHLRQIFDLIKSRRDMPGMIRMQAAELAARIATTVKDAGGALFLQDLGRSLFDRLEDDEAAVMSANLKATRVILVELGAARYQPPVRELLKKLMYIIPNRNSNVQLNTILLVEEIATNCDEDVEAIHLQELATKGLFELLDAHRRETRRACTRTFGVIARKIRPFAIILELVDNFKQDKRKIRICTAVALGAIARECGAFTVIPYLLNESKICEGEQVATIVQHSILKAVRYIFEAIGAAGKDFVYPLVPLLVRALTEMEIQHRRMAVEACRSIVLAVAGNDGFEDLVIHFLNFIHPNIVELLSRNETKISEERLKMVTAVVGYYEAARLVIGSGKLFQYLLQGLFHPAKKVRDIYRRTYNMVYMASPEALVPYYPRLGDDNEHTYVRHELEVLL
UniProt Q38C07: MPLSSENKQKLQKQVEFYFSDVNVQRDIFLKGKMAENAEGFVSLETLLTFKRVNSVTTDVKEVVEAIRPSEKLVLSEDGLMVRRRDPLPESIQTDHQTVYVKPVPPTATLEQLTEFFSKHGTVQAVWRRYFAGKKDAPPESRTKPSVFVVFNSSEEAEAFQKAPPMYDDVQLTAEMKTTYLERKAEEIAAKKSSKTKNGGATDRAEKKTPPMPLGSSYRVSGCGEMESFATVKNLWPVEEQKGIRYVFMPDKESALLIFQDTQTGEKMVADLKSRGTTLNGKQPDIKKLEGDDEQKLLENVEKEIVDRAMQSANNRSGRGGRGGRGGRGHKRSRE

biological target: T1, T. brucei telomerase reverse transcriptase (TbTERT), FLAG-HA-HA tagged (Trypanosoma brucei) (UniProt Q383R0); experiment: affinity purification with mass spectrometry; native telomerase complexes precipitated from BF T. brucei lysate (1 mg total protein) with a custom anti-TbTERT C-terminus antibody and protein G Dynabeads, overnight at 4°C; 25 mM Tris-HCl pH 7.5, 150 mM KCl, 1 mM EDTA, 10 mM MgCl2, 0.5% IGEPAL CA630, RNase inhibitor; isotype IgG control; 3 IPs and 3 controls; LC-MS/MS
T1 sequence: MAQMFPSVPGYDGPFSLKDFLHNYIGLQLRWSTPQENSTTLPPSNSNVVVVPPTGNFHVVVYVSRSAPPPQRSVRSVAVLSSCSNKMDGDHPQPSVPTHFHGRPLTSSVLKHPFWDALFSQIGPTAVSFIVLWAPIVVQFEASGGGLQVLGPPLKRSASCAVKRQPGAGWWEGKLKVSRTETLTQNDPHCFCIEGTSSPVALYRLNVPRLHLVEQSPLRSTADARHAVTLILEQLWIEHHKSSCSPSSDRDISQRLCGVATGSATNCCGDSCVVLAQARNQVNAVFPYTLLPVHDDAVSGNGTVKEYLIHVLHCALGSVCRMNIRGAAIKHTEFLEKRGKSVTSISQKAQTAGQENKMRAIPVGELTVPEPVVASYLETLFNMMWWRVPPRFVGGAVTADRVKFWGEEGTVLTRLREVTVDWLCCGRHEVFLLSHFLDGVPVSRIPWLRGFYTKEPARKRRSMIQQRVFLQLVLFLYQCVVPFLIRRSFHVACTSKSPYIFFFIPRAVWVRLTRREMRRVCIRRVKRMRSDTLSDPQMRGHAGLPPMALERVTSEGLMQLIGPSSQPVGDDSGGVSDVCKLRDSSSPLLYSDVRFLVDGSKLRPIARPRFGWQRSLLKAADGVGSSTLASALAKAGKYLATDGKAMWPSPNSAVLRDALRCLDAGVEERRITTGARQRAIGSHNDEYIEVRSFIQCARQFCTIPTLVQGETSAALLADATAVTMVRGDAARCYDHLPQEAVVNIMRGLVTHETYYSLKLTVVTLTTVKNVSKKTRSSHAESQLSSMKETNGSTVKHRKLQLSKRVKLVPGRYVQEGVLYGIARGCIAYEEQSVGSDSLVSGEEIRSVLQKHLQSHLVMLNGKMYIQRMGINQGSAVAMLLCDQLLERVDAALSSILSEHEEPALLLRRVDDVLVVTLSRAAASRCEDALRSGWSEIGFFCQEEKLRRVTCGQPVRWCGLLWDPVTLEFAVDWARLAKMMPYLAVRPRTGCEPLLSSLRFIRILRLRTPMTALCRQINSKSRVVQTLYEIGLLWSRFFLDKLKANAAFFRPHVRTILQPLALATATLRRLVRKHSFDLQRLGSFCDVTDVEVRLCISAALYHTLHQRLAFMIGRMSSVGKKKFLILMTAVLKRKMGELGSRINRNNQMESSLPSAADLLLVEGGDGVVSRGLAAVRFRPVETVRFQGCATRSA

binding | Substance
binds | TbUMSBP2
binds | DnaJ (from UniProt Q38C15)
binds | CDC27 homolog (anaphase promoting complex protein APC3) (from UniProt Q389U4)
binds | Reptin homolog (RuvB-like DNA helicase) (from UniProt Q583J3)
binds | damage specific DNA binding protein 1 (DDB1) homolog (from UniProt Q586I3)
binds | CDC16 homolog (anaphase promoting complex protein) (from UniProt Q584U1)
binds | Nucleolar protein 58 (NOP58) (from UniProt Q38F23)
binds | Pontin homolog (RuvB-like DNA helicase) (from UniProt Q581V4)
binds | NOP56 (from UniProt Q580Z5)
binds | yeast CDC48 homolog (AAA+ ATPase protein) (from UniProt Q38B27)
binds | Splicing factor 3B subunit 1 (SF3B1) homolog (from UniProt Q382Z6)
binds | T. brucei La protein (from UniProt Q38C07)
binds | T. brucei homolog of Poly(A)-specific ribonuclease (PARN) (enzyme)
